In PubChem BioAssay one finds normalised LDH release, lower = protection data, which are given here for 39 compounds.

Several values for one entry are separate records, joined by “and”; a condition that tells them apart may be missing. Identical values can stand only once. The list shows a part of the results. Where no call is shown, the source marks the result inconclusive. Residues, ends and D or L forms follow the SMILES beside them. *: point of attachment. For = O=C*

This experiment can be described thus: protection against mutant huntingtin cytotoxicity, PC12 cells, LDH release (AID 1610). As to conditions: PC12 mutant huntingtin toxicity; at 100 µM (top of the series). Background: LDH leaks from cells whose membrane has failed.
With `NC[C@@H]1O[C@H](O[C@@H]2[C@@H](CO)OC(O[C@@H]3[C@@H](O)[C@H](N)C[C@H](N)[C@H]3OC3O[C@H](CO)[C@@H](O)[C@H](O)[C@H]3N)[C@@H]2O)[C@H](N)[C@@H](O)[C@@H]1O` (some centres undefined), the normalised LDH release, lower = protection was found to be 1.2. With `CC1(C)O[C@@H]2CC3C4C[C@H](F)C5=CC(=O)CC[C@]5(C)C4[C@@H](O)C[C@]3(C)[C@]2(C(=O)CO)O1` (some centres undefined), the normalised LDH release, lower = protection is 0.72. On to `CCCOc1ccccc1-c1nc2n[nH]nc2c(=O)[nH]1`, for which the normalised LDH release, lower = protection is 0.542.

Regarding `Nc1ncnc2c1ncn2[C@@H]1O[C@H](CO)[C@@H](O)[C@@H]1O`, the normalised LDH release, lower = protection was 1.07.

In turn, `CO[C@@]1(NC(=O)Cc2cccs2)C(=O)N2C(C(=O)O)=C(COC(N)=O)CS[C@@H]21` yielded a normalised LDH release, lower = protection of 0.885. For `O=C(O)c1ccccc1Nc1cccc(C(F)(F)F)c1`, the normalised LDH release, lower = protection is -0.109. To `CN(C)CCOC(=O)COc1ccc(Cl)cc1` belongs 0.491; to `CCn1cc(C(=O)O)c(=O)c2cnc(N3CCNCC3)nc21`, 0.912; to `CC(=O)NO`, 0.611. Next, `CSCCC(NC=O)C(=O)NC(CC(C)C)C(=O)NC(Cc1ccccc1)C(=O)O` (centres undefined): 0.427; `CO[C@H]1/C=C/O[C@@]2(C)Oc3c(C)c(O)c4c(O)c(c(C=NN5CCN(C)CC5)c(O)c4c3C2=O)NC(=O)/C(C)=C\C=C\C(C)[C@H](O)[C@@H](C)[C@@H](O)[C@@H](C)[C@@H](OC(C)=O)[C@@H]1C` (some centres undefined): 0.298.

In the case of `C[N+](C)(C)CCCCCC[N+](C)(C)C`, the normalised LDH release, lower = protection worked out at 0.859.

Turning to `CCN(CC)CCNC(=O)c1ccc(N)cc1`, the normalised LDH release, lower = protection came to 1.07. For `O=C(Cn1ccnc1[N+](=O)[O-])NCCO`, the normalised LDH release, lower = protection amounted to 0.331. Next, `Cc1onc(-c2ccccc2)c1C(=O)NC1C(=O)N2[C@@H]1SC(C)(C)[C@@H]2C(=O)O` (some centres undefined): 0.82; `O=C(COc1ccc(Cl)cc1)N1CCN(Cc2ccc3c(c2)OCO3)CC1`: 0.598. Consider `NC(=O)c1cnccn1`, for which the normalised LDH release, lower = protection was 0.553. To `CC1=C2C(=CO[C@H](C)[C@H]2C)C(=O)C(C(=O)O)=C1O` belongs 0.513; to `O=C(O)c1cc(=O)c2ccccc2o1`, 0.812.

Compound `COc1ccc2c3c1O[C@H]1C[C@@H](O)C=C[C@@]31CCN(C)C2` registered a normalised LDH release, lower = protection of 0.993.

`CCN(CC)CCOc1ccc2c(c1)C(=O)c1cc(OCCN(CC)CC)ccc1-2` showed a normalised LDH release, lower = protection of 1.04. Take `C=C(C)[C@H]1CC=C(C(=O)O)CC1`: the normalised LDH release, lower = protection was determined as 0.867. For the compound `CC(=O)OCC[N+](C)(C)C`, the normalised LDH release, lower = protection turned out to be 0.586. The compound `Oc1cccc(O)c1` gave a normalised LDH release, lower = protection of 0.58. Next, `COc1ccc([C@@H]2CC(=O)c3c(O)cc(O)cc3O2)cc1O`: 1.12; `CC(C[N+](C)(C)C)OC(N)=O` (centres undefined): 0.881. Next, `N=c1nc(N2CCCCC2)cc(N)n1O`: 0.748. Next, `CC[C@H]1OC(=O)[C@H](C)[C@@H](O[C@H]2C[C@@](C)(OC)[C@@H](O)[C@H](C)O2)[C@H](C)[C@@H](O[C@@H]2O[C@H](C)C[C@H](N(C)C)[C@H]2O)[C@](C)(O)C[C@@H](C)C(=O)[C@H](C)[C@@H](O)[C@]1(C)O`: 0.63 and 0.706 and 0.836; `CSCCC(NC=O)C(=O)NC(Cc1ccccc1)C(=O)O` (stereo not drawn) (For-Met-Phe-OH; configuration not given here): 1.1.

For the compound `CC(=O)N[C@@H](Cc1c[nH]c2ccccc12)C(=O)O`, the normalised LDH release, lower = protection was found to be 0.551. Next, `CC1=NN(c2ccccc2)C(=O)C1`: 1.07. Next, `CN=C(NC#N)NCCSCc1nc[nH]c1C`: 0.77; `Nc1ccc(C(=O)O)c(O)c1`: 0.936; `NC(=O)NO`: 0.685. As for `CC[C@]12CCCN3CCc4c(n(c5ccccc45)[C@](O)(C(=O)OC)C1)[C@@H]32`, the normalised LDH release, lower = protection was 0.912. To `CCCC(C(=O)OCCN(CC)CC)(c1ccccc1)c1ccccc1` belongs 0.874; to `CCC[C@@H]1C[C@@H](C(=O)NC(C(C)Cl)C2O[C@H](SC)[C@H](O)[C@@H](O)[C@H]2O)N(C)C1` (some centres undefined), 0.54; to `CC(=O)Oc1cccc(O)c1`, 0.812. To `CCCN(CCC)S(=O)(=O)c1ccc(C(=O)O)cc1` belongs 0.662.
